# Source: PubChem BioAssay AID1347076 (National Center for Advancing Translational Sciences (NCATS), 2019)
# About 13,000 (3.2%) of roughly 400,000 compounds were called active. Inconclusive results, whose numbers are uncertain, are shown with a selection of clear calls. The call rests on the fitted dose curve; in most records, active means well fitted cell-killing curve with a large enough effect; inconclusive means small, poorly fitted or top-dose-only effect, or effect the other way; inactive means flat fitted curve, though single readings scatter. Potencies of inconclusive entries are doubtful fits and often do not repeat.
# Test: qHTS assay for MDR1-selective chemotherapeutics: Primary screen using the drug-selected MDR subline cells KB-V1; further: nearly all actives have a fitted effect of over 60% in size
# Details: KB-V1 MDR cells viability, CellTiter-Glo, 72 h; activity change, negative = cytotoxicity: at 46.1 µM (top of the series)
# Method in brief: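 Cells of the MDR subline KB-V1 are plated, dosed with compound at multiple concentrations, and incubated 72 h at 37 degrees C; CellTiter-Glo is then added and luminescence read after 10 min.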
# On the % scale 0 is the no-effect control and ±100 the full control effect; potency means the concentration at half of the fitted maximal effect.
Compound,"activity change, negative = cytotoxicity",Potency
CC(C)C[C@H](NC(=O)c1[nH]cnc1C(=O)N[C@@H](C)C(=O)OCc1ccccc1)C(=O)OC(C)(C)C,inactive: 20.6%,–
CCOc1ccc(CCNC(=O)c2cc3c(C)nccc3[nH]c2=O)cc1OCC,–,"inconclusive: 23.1 µM [cytotoxic, single point]"
O=C(NCCCn1ccnc1)C(=O)Nc1ccccc1,inactive: 5.05%,–
CCc1cccc2c(C(=O)COC(=O)c3c(C)noc3C)c[nH]c12,–,"inconclusive: 16.4 µM [cytotoxic, single point]"
CCN1C(=O)C(Cc2nc3ccccc3c(=O)n2C)c2ccccc21 (stereo not drawn),–,"inconclusive: 18.4 µM [cytotoxic, partial curve, poor fit]"
CC1(c2ccc(Cl)cc2)NC(=O)N(CC(=O)NCCC2=CCCCC2)C1=O (stereo not drawn),–,"inconclusive: 29.1 µM [cytotoxic, single point]"
CC(NC(=O)C1CCN(C(=O)Nc2ccccc2)CC1)c1ccc(Cl)cc1 (stereo not drawn),–,"inconclusive: 7.31 µM [rising, partial curve, poor fit]"
CCN1CCc2nc3ccccc3c(C(=O)Nc3ccc(NC(C)=O)cc3)c2C1,–,"inconclusive: 23.1 µM [rising, single point]"
CCc1ccc2c(Cl)c(C(=O)N/N=C/c3c[nH]c4ccccc34)sc2c1,–,"inconclusive: 23.1 µM [cytotoxic, partial curve]"
Cc1ccc(NC(=O)CSc2nc(O)c(Cc3ccccc3)c(=O)n2-c2ccccc2)cc1,inactive: 3.43%,–
O=C(CSc1ncnc2c(-c3ccc(Cl)cc3)nsc12)c1ccccc1,–,"inconclusive: 29.1 µM [cytotoxic, single point]"
COc1ccc(-c2cc(C(F)F)n3ncc(C(=O)N4CCc5ccccc54)c3n2)cc1,–,"inconclusive: 5.8 µM [cytotoxic, full curve]"
COc1ccc2c(CNCCc3ccco3)c(C(=O)O)n(Cc3ccc(F)cc3)c2c1,inactive: 6.86%,–
O=C(c1cc(-c2ccccc2)nc2ccccc12)N1CCc2ccccc2C1,–,active: 18.4 µM
CCOC(=O)c1ccc(N2C(=O)c3[nH]nc(-c4ccccc4)c3C2c2ccc(C(C)C)cc2)cc1 (stereo not drawn),–,"inconclusive: 29.1 µM [cytotoxic, single point]"
CS(=O)(=O)c1ccccc1C(=O)NCCC(c1ccccc1)c1ccccc1,–,"inconclusive: 29.1 µM [cytotoxic, single point]"
COc1ccc(N(C(=O)CCl)C(C(=O)NCCc2ccccc2)c2cccs2)cc1 (stereo not drawn),–,active: 18.4 µM
O=C(CSc1ccc(-c2ccc(Cl)cc2)nn1)Nc1ccc2c(c1)OCCO2,–,"inconclusive: 23.1 µM [cytotoxic, single point]"

# Reprinted from the entries so far for reference:
Compound,"activity change, negative = cytotoxicity",Potency
CS(=O)(=O)c1ccccc1C(=O)NCCC(c1ccccc1)c1ccccc1,–,"inconclusive: 29.1 µM [cytotoxic, single point]"
COc1ccc(N(C(=O)CCl)C(C(=O)NCCc2ccccc2)c2cccs2)cc1 (stereo not drawn),–,active: 18.4 µM
